These results are taken from patent publication US20160237154A1 (SORRENTO THERAPEUTICS, published 2016).

The assay addresses T1, cynomolgus CTLA4/His (cynomolgus) (UniProt G7PL88).
T1 sequence: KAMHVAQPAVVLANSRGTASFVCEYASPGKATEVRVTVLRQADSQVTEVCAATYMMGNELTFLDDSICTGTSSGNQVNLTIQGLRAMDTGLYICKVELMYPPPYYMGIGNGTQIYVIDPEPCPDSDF
The assay can be described thus: ELISA, CTLA4/His captured on Ni-NTA plate, antibody ~1 ug/mL, anti-human Fc-HRP.

No constants are given. Whether binding was seen depends on the method and setting. Some results given as binding are weak or reduced against the parent protein; the word gives no strength. Tags and fused reporters may be left off the sequences shown.

B1: CT1E1 (antibody, V domains shown)
VH: EVQLVESGGGLVQPGRSLRLSCRGSNFNFDDLAISWVRQAPGKGLEWLGFVRSKAYGETTDYVASVKGRFTISRDDSKFIAWLQMDSLKTDDTAVYYCTTFNYWGQGTLVTVSS
VL: QPVLTQPPSVSVAPGKTARISCGGNNIASEAVHWYQKKPGQAPVLVIYYDSDRPSGIPERFSGSNSGNTATLRISRVDAGDEADYYCQVWDRTTDQPVFGGGTKLTVL
notes: also called human anti-CTLA4 antibody CT1E1
Consider B1, for which the binding result was “binds”.
